{"source": "PubChem BioAssay AID1259254 | NCATS | 2017", "purpose": "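Gene knock-downs that lead to re-replication, shown by excess G2 DNA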 (primary screen)", "cell system": "human HCT116 colorectal cancer cells", "reagents": "single siRNA against human genes", "timing": "3 days", "measurement": "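Nuclei stained with Hoechst and imaged; cell-cycle phase assigned by DNA content; G2 share scaled per plate, non-targeting siRNA 0%, GMNN siRNA 100%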", "direction": "G2 robust z-score: higher = more G2 cells, more excess DNA replication", "active means": "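An siRNA counts as active if its G2 robust z-score lies at least 5 MADs above the screen median; here such calls match roughly 38% of GMNN control or more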", "note": "This is a random part of about 59,000 deposited reagents. In the full data, about 1,550 (2.6%) got an active call. 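G2 share is only a proxy for re-replication; each gene was hit by three separate siRNAs, and active genes were retested.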 Unmarked entries are inactive. Reagents against one gene are numbered here. Not all columns of the deposit are shown. The record does not give: the amount of reagent."}
{"gene symbol": "NOSTRIN", "reagent no.": 1, "G2 robust z-score": 3.33}
{"gene symbol": "NOSTRIN", "reagent no.": 2, "G2 robust z-score": -0.618}
{"gene symbol": "NOSTRIN", "reagent no.": 3, "G2 robust z-score": 0.864}
{"gene symbol": "NBPF6", "reagent no.": 1, "G2 robust z-score": -0.00901}
{"gene symbol": "NBPF6", "reagent no.": 2, "G2 robust z-score": 0.792}
{"gene symbol": "NBPF6", "reagent no.": 3, "G2 robust z-score": 1.16}
{"gene symbol": "ANO3", "reagent no.": 1, "G2 robust z-score": 0.0416}
{"gene symbol": "ANO3", "reagent no.": 2, "G2 robust z-score": 0.96}
{"gene symbol": "ANO3", "reagent no.": 3, "G2 robust z-score": -0.954}
{"gene symbol": "ADSS2", "reagent no.": 1, "G2 robust z-score": -0.959}
{"gene symbol": "ADSS2", "reagent no.": 2, "G2 robust z-score": 0.611}
{"gene symbol": "ADSS2", "reagent no.": 3, "G2 robust z-score": -1.15}
{"gene symbol": "ATL1", "reagent no.": 1, "G2 robust z-score": -0.948}
{"gene symbol": "ATL1", "reagent no.": 2, "G2 robust z-score": -0.601}
{"gene symbol": "ATL1", "reagent no.": 3, "G2 robust z-score": -0.616}
{"gene symbol": "SLC25A35", "reagent no.": 1, "G2 robust z-score": 0.866}
{"gene symbol": "SLC25A35", "reagent no.": 2, "G2 robust z-score": -0.572}
{"gene symbol": "SLC25A35", "reagent no.": 3, "G2 robust z-score": 0.568}
{"gene symbol": "LCNL1", "reagent no.": 1, "G2 robust z-score": 0.759}
{"gene symbol": "LCNL1", "reagent no.": 2, "G2 robust z-score": 4.34}
{"gene symbol": "LCNL1", "reagent no.": 3, "G2 robust z-score": -0.775}
{"gene symbol": "SCN3A", "reagent no.": 1, "G2 robust z-score": 2.02}
{"gene symbol": "SCN3A", "reagent no.": 2, "G2 robust z-score": 0.165}
{"gene symbol": "SCN3A", "reagent no.": 3, "G2 robust z-score": -1.33}

Reprinted from the entries so far, 3 entries:
{"gene symbol": "ANO3", "reagent no.": 2, "G2 robust z-score": 0.96}
{"gene symbol": "ANO3", "reagent no.": 3, "G2 robust z-score": -0.954}
{"gene symbol": "ADSS2", "reagent no.": 1, "G2 robust z-score": -0.959}
